Data source: PubChem BioAssay AID1259308 (NCATS, 2017)
In all, the deposit lists about 59,000 reagents; shown is an unselected part. Over the whole deposit, about 1,510 (2.6%) are marked active. 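Calls use total luciferase alone and ignore viability, so some active siRNAs may act by altering cell number.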 Unmarked entries are inactive. Not all columns of the deposit are shown. No sequences are given here.

Test: 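Knock-downs that increase output of a recombinant reporter protein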 (primary screen)
Cells: human HEK293 embryonic kidney cells stably expressing firefly luciferase (HEK-CMV-Luc2-Hygro)
Reagent: single siRNA against human genes, 0.8 pmol siRNA per well
Time to read-out: 72 h
Detection: 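Luciferase light (ONE-Glo) measured on one replicate plate set and viability (CellTiter-Glo) on the other, scaled to a negative control siRNA, with robust z-scores and luciferase per cell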
Reading the numbers: total luciferase, z-score and total luciferase, % of control: higher = more reporter protein produced
Active means: 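Active when the median/MAD z-score for overall luciferase is greater than 3; a gene was taken forward for validation with new siRNAs if at least two of its three siRNAs passed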
Meaning of the calls: active = raised luciferase; inactive = no rise

With knock-down of PPP3R2 [SID160714840] the results were total luciferase, z-score 0.254; total luciferase, % of control 86.9.
Against PPP3R2 [SID160714841], the entry reads total luciferase, z-score -0.203; total luciferase, % of control 77.8.
With knock-down of PPP3R2 [SID160731505], the record shows total luciferase, z-score 0.363; total luciferase, % of control 89.1.
After knock-down of LINC00960 [SID160767139], the record shows total luciferase, z-score 0.981; total luciferase, % of control 101.
Against LINC00960 [SID160767140] the deposit lists total luciferase, z-score 0.835; total luciferase, % of control 98.5.
LINC00960 [SID160767141] scored total luciferase, z-score -1.44; total luciferase, % of control 53.2.
With knock-down of MAGEC3 [SID160757651] the results were total luciferase, z-score -0.821; total luciferase, % of control 65.5.
With knock-down of MAGEC3 [SID160757652], the record shows total luciferase, z-score -0.36; total luciferase, % of control 74.7.
MAGEC3 [SID160757653] gave total luciferase, z-score -0.0214; total luciferase, % of control 81.5.
PTPRE [SID160715394] scored total luciferase, z-score -0.905; total luciferase, % of control 63.9.
After knock-down of PTPRE [SID160715395], the screen gave total luciferase, z-score -0.323; total luciferase, % of control 75.5.
PTPRE [SID160715396] scored total luciferase, z-score 0.19; total luciferase, % of control 85.7.
Silencing of IGF2BP2-AS1 [SID160769945] came out at: total luciferase, z-score -0.00897; total luciferase, % of control 81.7.
Against IGF2BP2-AS1 [SID160769946], the entry reads total luciferase, z-score 1.06; total luciferase, % of control 103.
After knock-down of IGF2BP2-AS1 [SID160769947] the results were total luciferase, z-score -1.67; total luciferase, % of control 48.6.
With knock-down of PRKRIP1 [SID160749239] the results were total luciferase, z-score 1.71; total luciferase, % of control 116.
PRKRIP1 [SID160749240] scored total luciferase, z-score 1.27; total luciferase, % of control 107.
Against PRKRIP1 [SID160749241], the entry reads total luciferase, z-score -1.97; total luciferase, % of control 42.6.
Against ZNF7 [SID160718989], the values are total luciferase, z-score 0.277; total luciferase, % of control 87.4.
ZNF7 [SID160718990] gave total luciferase, z-score 1.43; total luciferase, % of control 110.
ZNF7 [SID160718991] showed total luciferase, z-score -0.541; total luciferase, % of control 71.1.
Depletion of TMEM140 [SID160743426] gave: total luciferase, z-score -0.981; total luciferase, % of control 62.4.
After knock-down of TMEM140 [SID160743427] the results were total luciferase, z-score -0.916; total luciferase, % of control 63.7.
Depletion of TMEM140 [SID160743428] came out at: total luciferase, z-score 5.45 (active); total luciferase, % of control 190.
With knock-down of MRPS23 [SID160741149] the results were total luciferase, z-score 0.951; total luciferase, % of control 101.
Knock-down of MRPS23 [SID160741150] came out at: total luciferase, z-score 1.22; total luciferase, % of control 106.
MRPS23 [SID160741151] scored total luciferase, z-score -0.321; total luciferase, % of control 75.5.
After knock-down of DLX2 [SID160754733], the record shows total luciferase, z-score -1.29; total luciferase, % of control 56.3.
Depletion of DLX2 [SID160754741] came out at: total luciferase, z-score 3.75 (active); total luciferase, % of control 156.
After knock-down of DLX2 [SID160754752], the screen gave total luciferase, z-score -0.705; total luciferase, % of control 67.9.
Knock-down of RNASE2CP [SID160768845] resulted in: total luciferase, z-score 0.107; total luciferase, % of control 84.
Knock-down of RNASE2CP [SID160768846] came out at: total luciferase, z-score 1.72; total luciferase, % of control 116.
RNASE2CP [SID160768847] gave total luciferase, z-score -0.0915; total luciferase, % of control 80.1.
Knock-down of GSTA5 [SID160761662] resulted in: total luciferase, z-score -0.631; total luciferase, % of control 69.3.
For GSTA5 [SID160761663], the values are total luciferase, z-score -0.121; total luciferase, % of control 79.5.
Against GSTA5 [SID160761664], the entry reads total luciferase, z-score -0.773; total luciferase, % of control 66.5.
With knock-down of LAMP1 [SID160776514] the results were total luciferase, z-score 0.0163; total luciferase, % of control 82.2.
For LAMP1 [SID160776515], the entry reads total luciferase, z-score 1.04; total luciferase, % of control 103.
For LAMP1 [SID160776516], the entry reads total luciferase, z-score -1.11; total luciferase, % of control 59.7.
Against NME5 [SID160719928], the entry reads total luciferase, z-score 0.981; total luciferase, % of control 101.
For NME5 [SID160719929], the values are total luciferase, z-score 1.01; total luciferase, % of control 102.
After knock-down of NME5 [SID160719930], the screen gave total luciferase, z-score 0.146; total luciferase, % of control 84.8.

6 neighbouring records from above:
ZNF7 [SID160718990] | total luciferase, z-score: 1.43; total luciferase, % of control: 110
ZNF7 [SID160718991] | total luciferase, z-score: -0.541; total luciferase, % of control: 71.1
TMEM140 [SID160743426] | total luciferase, z-score: -0.981; total luciferase, % of control: 62.4
TMEM140 [SID160743427] | total luciferase, z-score: -0.916; total luciferase, % of control: 63.7
TMEM140 [SID160743428] | total luciferase, z-score: 5.45 (active); total luciferase, % of control: 190
MRPS23 [SID160741149] | total luciferase, z-score: 0.951; total luciferase, % of control: 101
